PubChem BioAssay AID1053208 – Peter MacCallum Cancer Centre, 2014

Test: 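Synthetic lethal interactions between gene loss and doxorubicin in osteosarcoma cells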 (primary screen)
Cell system: mouse osteosarcoma cells, early-passage culture from an engineered mouse model of fibroblastic bone tumour
Reagents: siRNA pool against mouse genes, 40 nM
Timing: about 120 h (48 h before drug, then 72 h with drug)
Conditions: doxorubicin 100 nM for 72 h, roughly 30-40% inhibitory dose
Measured: 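Luminescent ATP signal taken as viability with or without 100 nM doxorubicin for 72 h; mean of two wells set against non-targeting siRNA and turned into robust z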
Scale: viability z-score with doxorubicin: higher = more viable cells under doxorubicin; viability z-score without drug: higher = more viable cells with knock-down alone
Rule for the call: 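Called active if knock-down leaves viability unchanged without drug (z within -2 to 2) but lowers it with doxorubicin (z at or under -2)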
This is a random part of about 17,000 deposited reagents. 788 of them (4.7%) were called active. 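Calls rest on z-score classes alone; an extra cut-off of viability at most 70% of control was not applied to them.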 Entries without a mark were called inactive. Further read-outs or replicates are left out here.

| target gene | combined z-score class | viability z-score with doxorubicin | viability z-score without drug |
| --- | --- | --- | --- |
| Ppp1r10 (protein phosphatase 1, regulatory subunit 10) | no change with or without drug | 0.56 | 0.51 |
| Slit3 (slit guidance ligand 3) | high cell count without drug only | 1.35 | 2.36 |
| Zfp212 (Zinc finger protein 212) | no change with or without drug | -1.12 | -0.17 |
| St3gal2 (ST3 beta-galactoside alpha-2,3-sialyltransferase 2) | no change with or without drug | -0.34 | -0.51 |
| Fam193b (family with sequence similarity 193, member B) | no change with or without drug | -0.79 | -1.18 |
| Elovl3 (ELOVL fatty acid elongase 3) | no change with or without drug | -1.8 | 0.67 |
| Rpl32 (ribosomal protein L32) | low cell count with and without drug | -6.3 | -7.93 |
| Th (tyrosine hydroxylase) | no change with or without drug | -0.56 | -0.84 |
| F830004M19Rik (RIKEN cDNA F830004M19 gene) | no change with or without drug | -0.45 | -0.84 |
| Lefty2 (left-right determination factor 2) | no change with or without drug | 0.45 | -0.34 |
| Tal1 (T cell acute lymphocytic leukemia 1) | no change with or without drug | -0.67 | 0.17 |
| Acadsb (acyl-Coenzyme A dehydrogenase, short/branched chain) | no change with or without drug | 1.57 | -1.52 |
| Ambp (alpha 1 microglobulin/bikunin precursor) | no change with or without drug | -0.56 | -0.84 |
| Msx2 (msh homeobox 2) | no change with or without drug | 0 | -0.17 |
| Vmn1r217 (vomeronasal 1 receptor 217) | high cell count with doxorubicin only | 2.25 | 1.69 |
| Or2y10 (olfactory receptor family 2 subfamily Y member 10) | no change with or without drug | -0.45 | -1.35 |
| Pxmp2 (peroxisomal membrane protein 2) | no change with or without drug | -1.35 | -0.34 |
| Atp1a1 (ATPase, Na+/K+ transporting, alpha 1 polypeptide) | no change with or without drug | -0.45 | -1.18 |
| Prmt7 (protein arginine N-methyltransferase 7) | no change with or without drug | -1.12 | 0.17 |
| Slk (STE20-like kinase) | no change with or without drug | -1.57 | -0.67 |
| Vmn1r190-ps (vomeronasal 1 receptor 190, pseudogene) | low cell count with doxorubicin only (active) | -2.14 | -0.17 |
| Prdx2 (peroxiredoxin 2) | no change with or without drug | 0.34 | -0.17 |
| Pum2 (pumilio RNA-binding family member 2) | no change with or without drug | 0.45 | 0.84 |
| Prkar2b (protein kinase, cAMP dependent regulatory, type II beta) | high cell count without drug only | 1.8 | 2.19 |
| Khnyn (KH and NYN domain containing) | no change with or without drug | 0.45 | 0.34 |
| Eid2 (EP300 interacting inhibitor of differentiation 2) | no change with or without drug | -1.8 | 0.51 |
| Tnfsf8 (tumor necrosis factor (ligand) superfamily, member 8) | no change with or without drug | -1.35 | -0.51 |
| Mlycd (malonyl-CoA decarboxylase) | no change with or without drug | 1.91 | 0.51 |
| Spmip5 (sperm microtubule inner protein 5) | no change with or without drug | -0.22 | 0.67 |
| Casp4 (caspase 4, apoptosis-related cysteine peptidase) | no change with or without drug | 1.35 | 1.69 |
| Or51k1 (olfactory receptor family 51 subfamily K member 1) | no change with or without drug | -0.67 | -1.18 |
| B3galnt2 | no change with or without drug | -0.22 | -0.34 |
| Ube2f (ubiquitin-conjugating enzyme E2F (putative)) | no change with or without drug | -0.34 | 0.17 |
| Cd44 (CD44 antigen) | no change with or without drug | 0.67 | -1.01 |
| Vps35l (VPS35 endosomal protein sorting factor like) | no change with or without drug | -0.9 | -0.84 |
| Pltp (phospholipid transfer protein) | no change with or without drug | -0.22 | 0.51 |
| Them6 (thioesterase superfamily member 6) | low cell count with doxorubicin only (active) | -2.47 | -1.18 |
| Pofut3 (protein O-fucosyltransferase 3) | no change with or without drug | -0.45 | 1.52 |
| Dalrd3 (DALR anticodon binding domain containing 3) | no change with or without drug | 1.57 | 1.52 |
| Tril (TLR4 interactor with leucine-rich repeats) | no change with or without drug | -0.9 | 1.85 |
| Apol7c (apolipoprotein L 7c) | no change with or without drug | -0.9 | -0.51 |
| Ncan (neurocan) | no change with or without drug | -0.67 | 0.84 |
| Fabp4 (fatty acid binding protein 4, adipocyte) | no change with or without drug | -0.56 | -0.51 |
| Col16a1 (collagen, type XVI, alpha 1) | no change with or without drug | -0.22 | -0.17 |
| Ch25h (cholesterol 25-hydroxylase) | no change with or without drug | -1.24 | -0.17 |
| Prss39 (serine protease 39) | no change with or without drug | 0.79 | 0.17 |
| H2az1 (H2A.Z variant histone 1) | high cell count with doxorubicin only | 2.36 | 1.52 |
| Slc26a2 | no change with or without drug | 1.12 | 0.51 |
| Cenpo (centromere protein O) | low cell count without drug only | 1.57 | -3.2 |
| Slc18a2 | low cell count with doxorubicin only (active) | -2.02 | -0.34 |

Records above whose target name starts with O or o:
| target gene | combined z-score class | viability z-score with doxorubicin | viability z-score without drug |
| --- | --- | --- | --- |
| Or2y10 (olfactory receptor family 2 subfamily Y member 10) | no change with or without drug | -0.45 | -1.35 |
| Or51k1 (olfactory receptor family 51 subfamily K member 1) | no change with or without drug | -0.67 | -1.18 |
